Experimental data taken from the supplement of paper PMC6411743.
± gives the standard deviation of the averaged measurements. The entries are a selection whose mix differs from that of the whole data set. Most values lie at the level of the controls, where differences are scatter.

Protein sequences, listed by entry. Tags and fused reporters are not part of them. Lines headed by an entry give the natural chain unless they say otherwise; changes in a name come on top.
UniProt P08238, whole entry: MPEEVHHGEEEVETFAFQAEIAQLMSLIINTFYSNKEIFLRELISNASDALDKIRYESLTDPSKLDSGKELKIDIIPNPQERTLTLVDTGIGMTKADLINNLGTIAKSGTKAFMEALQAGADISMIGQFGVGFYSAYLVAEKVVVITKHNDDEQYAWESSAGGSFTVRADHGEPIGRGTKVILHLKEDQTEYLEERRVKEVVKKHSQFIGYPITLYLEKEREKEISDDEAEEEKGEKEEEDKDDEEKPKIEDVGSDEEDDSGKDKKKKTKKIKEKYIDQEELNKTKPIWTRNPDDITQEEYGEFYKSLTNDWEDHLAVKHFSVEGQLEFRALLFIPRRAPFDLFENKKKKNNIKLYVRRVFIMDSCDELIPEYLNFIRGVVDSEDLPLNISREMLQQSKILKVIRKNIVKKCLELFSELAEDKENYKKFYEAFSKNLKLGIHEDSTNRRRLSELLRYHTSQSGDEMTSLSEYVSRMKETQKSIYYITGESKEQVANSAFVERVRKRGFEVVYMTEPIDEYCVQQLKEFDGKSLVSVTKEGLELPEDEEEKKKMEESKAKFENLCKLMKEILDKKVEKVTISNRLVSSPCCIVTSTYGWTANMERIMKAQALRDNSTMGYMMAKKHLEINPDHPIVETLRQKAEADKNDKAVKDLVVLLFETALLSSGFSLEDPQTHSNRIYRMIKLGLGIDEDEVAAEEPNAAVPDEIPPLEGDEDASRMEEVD
UniProt P10746: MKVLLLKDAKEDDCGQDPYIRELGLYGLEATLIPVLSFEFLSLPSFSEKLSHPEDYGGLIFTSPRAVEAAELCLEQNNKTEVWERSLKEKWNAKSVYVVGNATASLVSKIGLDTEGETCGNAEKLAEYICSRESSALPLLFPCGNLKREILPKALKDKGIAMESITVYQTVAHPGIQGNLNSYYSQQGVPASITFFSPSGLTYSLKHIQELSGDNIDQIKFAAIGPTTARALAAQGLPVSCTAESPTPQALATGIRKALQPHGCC
UniProt P14550: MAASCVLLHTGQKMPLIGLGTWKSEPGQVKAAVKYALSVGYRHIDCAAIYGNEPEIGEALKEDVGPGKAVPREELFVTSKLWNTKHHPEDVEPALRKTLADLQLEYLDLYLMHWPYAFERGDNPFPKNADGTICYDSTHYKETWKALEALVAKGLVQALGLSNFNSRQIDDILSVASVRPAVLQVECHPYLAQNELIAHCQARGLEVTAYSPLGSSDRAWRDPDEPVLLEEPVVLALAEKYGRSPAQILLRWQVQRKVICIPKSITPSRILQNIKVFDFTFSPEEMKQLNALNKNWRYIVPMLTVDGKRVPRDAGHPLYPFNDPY
UniProt P08243: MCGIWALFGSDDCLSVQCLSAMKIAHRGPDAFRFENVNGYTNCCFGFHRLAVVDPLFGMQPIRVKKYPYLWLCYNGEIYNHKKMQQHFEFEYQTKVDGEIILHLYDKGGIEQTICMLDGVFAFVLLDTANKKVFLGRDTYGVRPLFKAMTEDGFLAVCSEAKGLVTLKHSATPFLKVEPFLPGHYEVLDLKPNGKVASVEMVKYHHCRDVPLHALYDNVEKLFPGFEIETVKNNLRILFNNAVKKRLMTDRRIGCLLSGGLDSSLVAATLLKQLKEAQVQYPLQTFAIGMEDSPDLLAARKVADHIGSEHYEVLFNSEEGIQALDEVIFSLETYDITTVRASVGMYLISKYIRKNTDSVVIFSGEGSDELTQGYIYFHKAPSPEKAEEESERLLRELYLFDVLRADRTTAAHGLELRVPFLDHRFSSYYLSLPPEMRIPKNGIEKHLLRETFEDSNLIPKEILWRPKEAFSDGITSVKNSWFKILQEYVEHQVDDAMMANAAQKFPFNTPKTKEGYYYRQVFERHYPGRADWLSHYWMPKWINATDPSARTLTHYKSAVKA
UniProt O95983: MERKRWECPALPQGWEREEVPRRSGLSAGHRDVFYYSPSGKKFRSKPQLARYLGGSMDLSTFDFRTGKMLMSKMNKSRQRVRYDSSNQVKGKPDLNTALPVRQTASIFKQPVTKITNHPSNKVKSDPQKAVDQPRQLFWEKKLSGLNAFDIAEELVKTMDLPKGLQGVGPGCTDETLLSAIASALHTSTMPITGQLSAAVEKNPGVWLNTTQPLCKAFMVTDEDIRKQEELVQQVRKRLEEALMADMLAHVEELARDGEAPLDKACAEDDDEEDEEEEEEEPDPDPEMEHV
UniProt P13995: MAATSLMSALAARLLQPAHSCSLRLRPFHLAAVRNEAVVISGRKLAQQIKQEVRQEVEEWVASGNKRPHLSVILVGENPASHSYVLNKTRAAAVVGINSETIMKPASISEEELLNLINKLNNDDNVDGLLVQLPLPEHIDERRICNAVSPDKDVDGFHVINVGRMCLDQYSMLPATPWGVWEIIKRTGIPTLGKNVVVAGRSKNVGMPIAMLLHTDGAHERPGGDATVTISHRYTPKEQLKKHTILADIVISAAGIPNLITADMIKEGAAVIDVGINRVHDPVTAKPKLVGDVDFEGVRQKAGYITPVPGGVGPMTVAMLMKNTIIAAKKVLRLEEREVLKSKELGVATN
UniProt P05198, whole entry: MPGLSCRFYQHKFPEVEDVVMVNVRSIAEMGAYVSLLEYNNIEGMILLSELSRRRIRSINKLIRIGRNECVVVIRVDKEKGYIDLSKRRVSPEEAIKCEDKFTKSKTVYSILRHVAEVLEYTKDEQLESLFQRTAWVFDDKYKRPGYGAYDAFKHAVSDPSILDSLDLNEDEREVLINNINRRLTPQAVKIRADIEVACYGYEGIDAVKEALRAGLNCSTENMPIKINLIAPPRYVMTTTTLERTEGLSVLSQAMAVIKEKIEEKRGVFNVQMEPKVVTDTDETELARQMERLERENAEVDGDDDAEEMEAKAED
UniProt P09012, whole entry: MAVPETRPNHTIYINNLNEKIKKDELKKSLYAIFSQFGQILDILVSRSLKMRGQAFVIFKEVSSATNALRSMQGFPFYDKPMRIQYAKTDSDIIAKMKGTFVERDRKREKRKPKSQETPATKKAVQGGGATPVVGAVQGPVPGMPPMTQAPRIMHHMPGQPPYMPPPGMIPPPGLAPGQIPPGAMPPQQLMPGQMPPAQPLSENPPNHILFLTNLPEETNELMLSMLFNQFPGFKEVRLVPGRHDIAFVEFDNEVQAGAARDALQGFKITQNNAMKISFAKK
UniProt O96005: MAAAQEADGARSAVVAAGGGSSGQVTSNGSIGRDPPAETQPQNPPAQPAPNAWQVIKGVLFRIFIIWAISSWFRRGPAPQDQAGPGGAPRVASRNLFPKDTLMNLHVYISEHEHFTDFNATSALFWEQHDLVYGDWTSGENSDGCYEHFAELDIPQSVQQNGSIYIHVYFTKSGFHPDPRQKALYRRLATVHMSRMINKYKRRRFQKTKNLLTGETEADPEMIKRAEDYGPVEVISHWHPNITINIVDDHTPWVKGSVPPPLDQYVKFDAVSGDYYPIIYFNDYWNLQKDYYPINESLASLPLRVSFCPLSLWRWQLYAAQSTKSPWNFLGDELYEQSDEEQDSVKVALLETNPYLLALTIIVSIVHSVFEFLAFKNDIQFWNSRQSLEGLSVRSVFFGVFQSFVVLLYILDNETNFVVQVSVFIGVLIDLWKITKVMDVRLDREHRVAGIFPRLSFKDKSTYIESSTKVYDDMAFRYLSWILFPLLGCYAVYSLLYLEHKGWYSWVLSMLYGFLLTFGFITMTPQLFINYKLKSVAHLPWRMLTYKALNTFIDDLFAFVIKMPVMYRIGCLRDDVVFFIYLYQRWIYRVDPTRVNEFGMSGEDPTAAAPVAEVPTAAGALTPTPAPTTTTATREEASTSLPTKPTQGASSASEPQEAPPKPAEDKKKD
UniProt P11169: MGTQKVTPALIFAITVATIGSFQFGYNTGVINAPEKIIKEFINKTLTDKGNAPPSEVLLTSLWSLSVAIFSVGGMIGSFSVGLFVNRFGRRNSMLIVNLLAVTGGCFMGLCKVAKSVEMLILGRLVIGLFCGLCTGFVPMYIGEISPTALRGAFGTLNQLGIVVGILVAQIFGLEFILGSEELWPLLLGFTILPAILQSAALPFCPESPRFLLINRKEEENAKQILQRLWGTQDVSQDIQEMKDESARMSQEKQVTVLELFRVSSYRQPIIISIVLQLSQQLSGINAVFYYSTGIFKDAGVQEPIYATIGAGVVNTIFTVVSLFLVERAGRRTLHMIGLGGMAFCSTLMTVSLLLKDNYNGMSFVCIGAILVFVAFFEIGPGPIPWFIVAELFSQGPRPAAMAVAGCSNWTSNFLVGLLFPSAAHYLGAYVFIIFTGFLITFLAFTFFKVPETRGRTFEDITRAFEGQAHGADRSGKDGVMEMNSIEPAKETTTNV
UniProt P11388: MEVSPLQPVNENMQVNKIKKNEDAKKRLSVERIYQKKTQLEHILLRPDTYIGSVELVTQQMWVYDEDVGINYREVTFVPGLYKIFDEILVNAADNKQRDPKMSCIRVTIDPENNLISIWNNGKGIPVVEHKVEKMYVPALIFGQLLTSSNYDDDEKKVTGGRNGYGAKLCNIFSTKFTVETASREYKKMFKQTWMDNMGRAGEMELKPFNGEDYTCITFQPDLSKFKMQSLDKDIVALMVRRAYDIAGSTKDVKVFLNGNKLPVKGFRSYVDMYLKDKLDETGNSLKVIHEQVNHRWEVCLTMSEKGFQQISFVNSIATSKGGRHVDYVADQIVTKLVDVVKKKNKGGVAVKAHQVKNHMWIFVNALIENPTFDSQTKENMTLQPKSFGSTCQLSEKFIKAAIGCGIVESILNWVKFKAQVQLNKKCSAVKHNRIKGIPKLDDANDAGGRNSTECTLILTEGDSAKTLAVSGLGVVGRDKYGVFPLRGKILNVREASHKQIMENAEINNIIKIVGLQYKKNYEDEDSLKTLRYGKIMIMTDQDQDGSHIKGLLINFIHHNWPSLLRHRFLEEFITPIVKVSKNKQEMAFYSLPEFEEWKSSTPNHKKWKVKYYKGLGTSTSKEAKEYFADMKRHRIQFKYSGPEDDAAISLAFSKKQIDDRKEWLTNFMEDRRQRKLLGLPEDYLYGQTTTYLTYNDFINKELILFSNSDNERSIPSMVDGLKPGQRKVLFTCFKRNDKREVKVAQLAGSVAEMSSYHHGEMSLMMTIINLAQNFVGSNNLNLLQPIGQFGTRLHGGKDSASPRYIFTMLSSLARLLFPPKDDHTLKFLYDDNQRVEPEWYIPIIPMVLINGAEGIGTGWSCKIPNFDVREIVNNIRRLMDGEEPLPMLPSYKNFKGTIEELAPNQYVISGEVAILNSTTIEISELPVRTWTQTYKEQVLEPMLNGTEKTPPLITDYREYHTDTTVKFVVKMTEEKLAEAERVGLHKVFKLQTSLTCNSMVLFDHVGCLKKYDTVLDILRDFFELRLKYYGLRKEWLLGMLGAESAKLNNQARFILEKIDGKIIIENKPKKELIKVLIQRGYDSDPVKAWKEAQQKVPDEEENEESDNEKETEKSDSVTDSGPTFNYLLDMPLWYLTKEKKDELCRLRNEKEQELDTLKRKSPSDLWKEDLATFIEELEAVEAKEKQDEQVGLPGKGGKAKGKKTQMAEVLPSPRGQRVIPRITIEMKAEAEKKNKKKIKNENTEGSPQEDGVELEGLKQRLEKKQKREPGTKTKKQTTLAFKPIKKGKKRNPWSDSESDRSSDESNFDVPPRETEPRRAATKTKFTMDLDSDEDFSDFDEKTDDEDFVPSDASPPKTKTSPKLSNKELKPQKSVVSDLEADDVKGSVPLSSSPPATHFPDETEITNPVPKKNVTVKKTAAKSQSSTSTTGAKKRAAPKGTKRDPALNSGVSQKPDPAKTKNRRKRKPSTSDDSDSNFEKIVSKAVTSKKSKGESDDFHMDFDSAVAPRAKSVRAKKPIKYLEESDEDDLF
UniProt P13010: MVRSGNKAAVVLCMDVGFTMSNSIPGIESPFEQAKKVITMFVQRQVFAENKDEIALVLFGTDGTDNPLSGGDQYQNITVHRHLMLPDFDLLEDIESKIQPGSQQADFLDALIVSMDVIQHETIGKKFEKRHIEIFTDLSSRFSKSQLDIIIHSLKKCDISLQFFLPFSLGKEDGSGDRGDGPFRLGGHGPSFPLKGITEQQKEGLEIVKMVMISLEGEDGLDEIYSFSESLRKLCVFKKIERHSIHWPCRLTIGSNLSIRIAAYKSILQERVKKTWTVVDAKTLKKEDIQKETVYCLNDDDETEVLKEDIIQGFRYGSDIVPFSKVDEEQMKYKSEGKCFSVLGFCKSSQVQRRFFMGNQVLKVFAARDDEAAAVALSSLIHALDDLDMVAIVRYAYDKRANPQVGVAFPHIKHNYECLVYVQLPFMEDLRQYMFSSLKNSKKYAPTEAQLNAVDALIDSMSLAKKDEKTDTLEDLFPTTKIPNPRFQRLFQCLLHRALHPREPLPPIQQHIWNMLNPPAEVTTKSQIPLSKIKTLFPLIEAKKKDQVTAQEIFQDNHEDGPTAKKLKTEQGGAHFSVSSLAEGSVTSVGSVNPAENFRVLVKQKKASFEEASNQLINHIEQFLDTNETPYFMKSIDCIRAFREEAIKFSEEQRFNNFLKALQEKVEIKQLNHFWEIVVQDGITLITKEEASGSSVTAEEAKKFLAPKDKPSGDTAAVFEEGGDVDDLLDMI

Compound: Nc1ncnc2c1ncn2[C@@H]1O[C@H](COP(=O)(O)OP(=O)(O)OP(=O)(O)O)[C@@H](O)[C@H]1O [adenosine triphosphate]
Test: NP40-soluble protein abundance relative to vehicle (solubility fold change) (ratio); higher = more soluble protein in presence of ATP
Summary of the method: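 Crude Jurkat lysate, prepared by Dounce homogenisation, was exposed to eight concentrations from 0.1 to 10 mM for 10 min at room temperature and then 3 min at 37 °C. Solubilisation used 0.8% NP40 with benzonase for 60 min at 4 °C, followed by ultracentrifugation and TMT labelling of the supernatant for LC-MS/MS. After vsn normalisation of intensities, each value is the fold change against the detergent-processed vehicle within each replicate, across three independent experiments.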

Target | NP40-soluble protein abundance (concentration: 0.1mM) | NP40-soluble protein abundance (concentration: 0.5mM) | NP40-soluble protein abundance (concentration: 1mM) | NP40-soluble protein abundance (concentration: 2mM) | NP40-soluble protein abundance (concentration: 4mM) | NP40-soluble protein abundance (concentration: 6mM) | NP40-soluble protein abundance (concentration: 8mM) | NP40-soluble protein abundance (concentration: 10mM)
HSP90AB1 (UniProt P08238) | 1.04 ± 0.065 | 1.01 ± 0.027 | 1.01 ± 0.063 | 0.99 ± 0.052 | 0.983 ± 0.05 | 0.928 ± 0.069 | 0.953 ± 0.022 | 0.964 ± 0.064
UniProt P13674 and related entries | 0.985 ± 0.012 | 1.01 ± 0.045 | 1.01 ± 0.0016 | 1.01 ± 0.022 | 0.994 ± 0.027 | 1.03 ± 0.054 | 1.01 ± 0.034 | 1.04 ± 0.045
UROS (UniProt P10746) | 1.02 ± 0.029 | 0.972 ± 0.057 | 0.973 ± 0.029 | 0.988 ± 0.041 | 0.98 ± 0.061 | 0.968 ± 0.038 | 0.95 ± 0.059 | 0.927 ± 0.054
HMGN2 (UniProt P05204) | 1.13 ± 0.22 | 1.18 ± 0.24 | 1.06 ± 0.36 | 1.27 ± 0.42 | 1.29 ± 0.44 | 1.67 ± 0.9 | 1.55 ± 0.41 | 2.08 ± 1.5
AKR1A1 (UniProt P14550) | 1.02 ± 0.053 | 1.01 ± 0.052 | 0.989 ± 0.046 | 0.979 ± 0.047 | 0.956 ± 0.048 | 0.959 ± 0.086 | 0.986 ± 0.059 | 0.944 ± 0.05
UniProt P08243 and related entries | 1.13 ± 0.12 | 1.11 ± 0.15 | 1.1 ± 0.13 | 1.1 ± 0.12 | 1.1 ± 0.11 | 1.03 ± 0.14 | 1.15 ± 0.12 | 1.09 ± 0.097
UniProt O95983 and related entries | 0.946 ± 0.1 | 0.942 ± 0.11 | 1.03 ± 0.12 | 0.983 ± 0.078 | 0.98 ± 0.035 | 1.02 ± 0.16 | 1.01 ± 0.065 | 0.92 ± 0.082
MTHFD2 (UniProt P13995) | 1.03 ± 0.033 | 1.05 ± 0.051 | 1.02 ± 0.018 | 1.01 ± 0.02 | 0.995 ± 0.04 | 1.01 ± 0.043 | 1.01 ± 0.032 | 1 ± 0.026
EIF2S1 (UniProt P05198) | 1.05 ± 0.062 | 1.05 ± 0.064 | 1.04 ± 0.043 | 1.05 ± 0.034 | 1.02 ± 0.027 | 1.04 ± 0.07 | 1.06 ± 0.053 | 1.05 ± 0.051
POLR3D (UniProt P05423) | 0.981 ± 0.033 | 0.9808 ± 0.0084 | 0.986 ± 0.095 | 0.962 ± 0.062 | 0.949 ± 0.071 | 0.963 ± 0.12 | 0.965 ± 0.064 | 0.963 ± 0.065
UniProt P06493 | 1.06 ± 0.061 | 1.09 ± 0.052 | 1.05 ± 0.054 | 1.06 ± 0.053 | 1.03 ± 0.063 | 1.03 ± 0.1 | 1.05 ± 0.058 | 1.05 ± 0.015
SNRPA (UniProt P09012) | 1.02 ± 0.04 | 0.981 ± 0.064 | 1.01 ± 0.067 | 0.989 ± 0.09 | 0.973 ± 0.093 | 0.984 ± 0.1 | 0.992 ± 0.032 | 0.97 ± 0.006
CST3 (UniProt P01034) | 1.02 ± 0.12 | 0.918 ± 0.09 | 0.964 ± 0.083 | 0.971 ± 0.063 | 1 ± 0.11 | 1.03 ± 0.11 | 1.05 ± 0.15 | 1.05 ± 0.14
COX5B (UniProt P10606) | 0.939 ± 0.049 | 0.959 ± 0.024 | 0.9588 ± 0.0074 | 0.963 ± 0.013 | 0.966 ± 0.032 | 1.01 ± 0.028 | 0.936 ± 0.055 | 0.929 ± 0.012
UniProt P12268 and related entries | 0.86 ± 0.18 | 1.11 ± 0.14 | 1.14 ± 0.2 | 0.858 ± 0.18 | 0.957 ± 0.03 | 0.745 ± 0.14 | 0.636 ± 0.064 | 0.587 ± 0.058
GALT (UniProt P07902) | 1.04 ± 0.042 | 1.06 ± 0.031 | 0.994 ± 0.016 | 0.972 ± 0.068 | 0.983 ± 0.053 | 0.9753 ± 0.0077 | 0.935 ± 0.029 | 0.947 ± 0.02
CLPTM1 (UniProt O96005) | 0.9661 ± 0.0059 | 0.999 ± 0.041 | – | – | – | – | – | –
UniProt P14151 and related entries | 0.948 ± 0.028 | 0.965 ± 0.065 | – | – | – | – | – | –
HMGN1 (UniProt P05114) | 1.03 ± 0.13 | 1.33 ± 0.39 | 1.23 ± 0.32 | 2 ± 0.51 | 1.5 ± 0.35 | 1.88 ± 0.89 | 1.67 ± 0.38 | 1.95 ± 1.1
P0DN76 and related entries (UniProt Q01081+P0DN76) | 1.24 ± 0.065 | 2.03 ± 0.081 | 2.11 ± 0.23 | 2.14 ± 0.2 | 2.22 ± 0.17 | 2.36 ± 0.16 | 2.27 ± 0.11 | 2.24 ± 0.17
SLC2A3 (UniProt P11169) | 1.08 ± 0.022 | 1.01 ± 0.029 | – | – | – | – | – | –
PFN1 (UniProt P07737) | 0.985 ± 0.041 | 0.951 ± 0.056 | 0.941 ± 0.059 | 0.934 ± 0.049 | 0.918 ± 0.027 | 0.92 ± 0.059 | 0.891 ± 0.015 | 0.911 ± 0.034
UniProt P11388 and related entries | 1.11 ± 0.055 | 1.21 ± 0.043 | 1.31 ± 0.066 | 1.41 ± 0.062 | 1.64 ± 0.06 | 1.76 ± 0.074 | 1.99 ± 0.11 | 2.03 ± 0.14
TK1 (UniProt P04183) | 1.04 ± 0.022 | 1.07 ± 0.059 | – | – | – | – | – | –
XRCC5 (UniProt P13010) | 1.04 ± 0.074 | 1.04 ± 0.047 | 1.04 ± 0.055 | 1.01 ± 0.051 | 0.996 ± 0.039 | 0.961 ± 0.076 | 1 ± 0.024 | 0.993 ± 0.057

Another view of some results above:
Target	NP40-soluble protein abundance (concentration: 0.1mM)	NP40-soluble protein abundance (concentration: 0.5mM)	NP40-soluble protein abundance (concentration: 1mM)	NP40-soluble protein abundance (concentration: 2mM)	NP40-soluble protein abundance (concentration: 4mM)	NP40-soluble protein abundance (concentration: 6mM)	NP40-soluble protein abundance (concentration: 8mM)	NP40-soluble protein abundance (concentration: 10mM)
MTHFD2 (UniProt P13995)	1.03 ± 0.033	1.05 ± 0.051	1.02 ± 0.018	1.01 ± 0.02	0.995 ± 0.04	1.01 ± 0.043	1.01 ± 0.032	1 ± 0.026
EIF2S1 (UniProt P05198)	1.05 ± 0.062	1.05 ± 0.064	1.04 ± 0.043	1.05 ± 0.034	1.02 ± 0.027	1.04 ± 0.07	1.06 ± 0.053	1.05 ± 0.051
